Results reported in patent publication US9657080B2, “Methods for treating diseases with peptides that inhibit IGF-1” (Universite Pierre et Marie Curie (Paris 6), priority 2009, dated 2017).
Not every detail of the peptide structures is certain; ends, links or a residue may be inferred. Where no end group is shown, it is not given here.

Tests used:
IGF-IR [1] = assay: IGF-IR expression in primary neonatal mouse mandibulary chondrocyte culture (immunohistochemistry); format: cell-based
IGF-I = IGF-I expression in primary neonatal mouse mandibulary chondrocyte culture (immunohistochemistry, densitometry); format: cell-based; details: for IGF-I level (quantification of immunohistochemistry staining by densitometry): 5th day of culture
IGF-IR [2] = assay: IGF-IR expression in primary neonatal mouse mandibulary chondrocyte culture (immunoblotting); format: cell-based; details: 5 days incubation, 10^−6 M of P7
female rats = assay: Subcutaneous administration to female rats: GH effects and anti-peptide antibody; format: in vivo
IGF-I/IGF-IR axis = assay: In vitro effect on IGF-I/IGF-IR axis in chondrocyte culture (conclusion); format: cell-based, mouse

## Ac-GTSDRVYEKLAGSKNFFWKTFTSS [P7, Acetyl-GTSDRVYEKLAGSKNFFWKTFTSS]
IGF-IR [1]; 10^−6 M P7
  expression of IGF-IR (immunohistochemistry staining): markedly suppresses the expression
IGF-IR [1]; 10^−7M P7
  expression of IGF-IR (immunohistochemistry staining): simulated the expression
IGF-I; 10^−6 M P7
  expression of IGF-I (immunohistochemistry staining): markedly suppresses the expression
IGF-I; 10^−7M P7
  expression of IGF-I (immunohistochemistry staining): simulated the expression
IGF-I; P7 at high concentration 10^−6M
  IGF-I level (quantification of immunohistochemistry staining by densitometry): −15%
IGF-I; P7 at low concentration 10^−7M
  IGF-I level (quantification of immunohistochemistry staining by densitometry): +65%
IGF-IR [2]
  effect on IGF-IR expression (immunoblotting, FIG. 1): biphasic effect
Female rats
  GH effects: induced antagonist and/or agonist GH effects
IGF-I/IGF-IR axis; high dose 10^−6M
  effect on the IGF-I/IGF-IR axis: inhibitory effect
IGF-I/IGF-IR axis; low dose 10^−7M
  effect on the IGF-I/IGF-IR axis: accelerating effect
